Data published in patent US9623262B2, “Methods and systems for determining the distribution of radiation dose and response” (priority 2013, dated 2017).

Tested on: V79 cells
Assay: Cellular uptake by flow cytometry (mean fluorescence intensity, lognormal fit)
Format: cell-based, Chinese hamster
Conditions: for slope of net MFI versus extracellular drug concentration, low concentrations: daunomycin <0.6 μmol/L, doxorubicin <1 μmol/L; for slope of net MFI versus extracellular drug concentration, high concentrations: daunomycin >0.6 μmol/L, doxorubicin above 1 μmol/L

COc1cccc2c1C(=O)c1c(O)c3c(c(O)c1C2=O)C[C@@](O)(C(C)=O)C[C@@H]3O[C@H]1C[C@H](N)[C@H](O)[C@H](C)O1 [daunomycin]
slope of net MFI versus extracellular drug concentration, low concentrations: 5922 (μmol/L)^−1 | slope of net MFI versus extracellular drug concentration, high concentrations: 2480 (μmol/L)^−1

COc1cccc2c1C(=O)c1c(O)c3c(c(O)c1C2=O)C[C@@](O)(C(=O)CO)C[C@@H]3O[C@H]1C[C@H](N)[C@H](O)[C@H](C)O1 [doxorubicin]
slope of net MFI versus extracellular drug concentration, low concentrations: 61 (μmol/L)^−1 | slope of net MFI versus extracellular drug concentration, high concentrations: 40 (μmol/L)^−1
